# In PubChem BioAssay AID1347421 (Sanford-Burnham Center for Chemical Genomics, 2020):
# Sequences of proteins named here, by UniProt entry; tags and fusion partners are left off. A change or cut given only in a name is not applied to a line headed by its entry.
# UniProt O00391: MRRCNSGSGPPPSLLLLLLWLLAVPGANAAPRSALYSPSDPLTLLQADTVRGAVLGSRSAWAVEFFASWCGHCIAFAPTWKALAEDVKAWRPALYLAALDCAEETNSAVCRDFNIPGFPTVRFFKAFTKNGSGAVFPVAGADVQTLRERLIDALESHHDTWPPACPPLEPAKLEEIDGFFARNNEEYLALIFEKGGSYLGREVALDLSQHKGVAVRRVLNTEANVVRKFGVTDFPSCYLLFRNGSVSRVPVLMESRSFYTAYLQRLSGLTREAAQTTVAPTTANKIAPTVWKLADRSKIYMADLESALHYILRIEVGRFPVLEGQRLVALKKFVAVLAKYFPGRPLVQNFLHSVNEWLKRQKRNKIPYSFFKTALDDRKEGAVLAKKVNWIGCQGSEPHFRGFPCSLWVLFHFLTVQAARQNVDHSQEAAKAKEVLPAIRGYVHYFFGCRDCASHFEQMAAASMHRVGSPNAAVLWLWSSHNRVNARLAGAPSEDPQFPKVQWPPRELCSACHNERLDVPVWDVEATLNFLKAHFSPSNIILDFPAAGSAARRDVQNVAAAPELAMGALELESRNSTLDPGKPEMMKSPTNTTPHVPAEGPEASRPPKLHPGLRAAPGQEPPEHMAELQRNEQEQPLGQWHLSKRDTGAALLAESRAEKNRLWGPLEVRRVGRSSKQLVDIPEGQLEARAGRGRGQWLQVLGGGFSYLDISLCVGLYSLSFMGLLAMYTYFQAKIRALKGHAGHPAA
# Whole data set: some 1,500 compounds, median “activity” near 2, cut for the lowest 2% near -18. Some of the results follow. Calls of active or inactive are those of the source.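 The calls were made as follows: active = inhibition of at least 40% at 10 µM; inconclusive = no clear call, values can overlap the other calls; inactive = the rest.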
# Biological target: Sulfhydryl oxidase 1 (Homo sapiens) (UniProt O00391)
# Experiment: QSOX1 enzyme inhibitors, confirmation, biochemical, ROS-Glo luminescence, single concentration (AID 1347421);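 also: 0% = DMSO wells with enzyme and 100% = wells lacking QSOX1 enzyme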
# Conditions: recombinant hQSOX1, RNase A substrate, ROS-Glo H2O2 luminescence; at 10 µM
row,Structure (SMILES),activity
1,O=C(Nc1ccccc1C(=O)NC1CC1)c1ccccc1Cl,11.7%
2,CN(C)CCCN(CC1CCN(C2Cc3ccccc3C2)CC1)C(=O)CN1CCOC1=O,inactive: -2.6%
3,COc1ccc(C(C)(C)NC(=O)C2CCC(=O)N(Cc3ccccc3F)C2)cc1OC (stereo unspecified),inactive: -0.6%
4,CCN(CC)C(=O)Cn1cc(C(=O)N2CCCCC2CCn2cccn2)nn1 (stereo unspecified),inactive: -3.7%
5,CCC(C)c1n[nH]c2c1CN(C(=O)CC1CNCCO1)CC2 (stereo unspecified),0.3%
6,c1ccc(CCCC2CN(Cc3ccccn3)CCO2)cc1 (stereo unspecified),6.1%
7,O=C1CCC(C(=O)N2CCCC(CCC(=O)N3CCN(Cc4ccccc4)CC3)C2)=NN1 (stereo unspecified),4.6%
8,CC(C)(C)C(=O)NCCc1nc2ccccc2[nH]1,inactive: -10.7%
9,O=c1cc(N2CCNCC2)cnn1Cc1c(Cl)cccc1Cl,1.1%
10,O=C(CCc1cccnc1)N1CCc2onc(-c3ccc(Cl)cc3)c2C1,9.9%
11,CCOC(=O)C1(CCc2ccccc2)CCN(C(=O)c2ccncc2)CC1,5%
12,COCC(=O)N1CCC(Oc2ccc(C(=O)NCCc3ccc(F)cc3)cc2)CC1,inactive: -2.2%
13,O=C(c1csnn1)N1CCOC(CC2CCCCC2)C1 (stereo unspecified),2%
14,COc1ccc(NC2CCCN(C(=O)c3ccccc3-c3ncc[nH]3)C2)cc1 (stereo unspecified),2.6%
15,Fc1cccc(C2(CNc3ccc(-n4ccnc4)cc3)CCOC2)c1 (stereo unspecified),4%
16,Cc1noc(C)c1C(=O)N1CCOC(CC2CCCCC2)C1 (stereo unspecified),inactive: -2%
17,C=C(C)CNC(=O)C1CCC(=O)N(CCCc2ccccc2)C1 (stereo unspecified),inactive: -5.8%
18,Brc1ccc(Cn2ccnc2)cc1,1%
19,CCOC(=O)C1(CCOc2ccccc2)CCN(C)CC1,7.1%
20,CC1CCN(Cc2nnnn2CCCC(=O)N(C)CCC(O)c2ccccc2)CC1 (stereo unspecified),7.2%
21,O[C@@H]1CN(Cc2coc(-c3ccccc3)n2)CC[C@H]1N1CCCCCC1,inactive: -3.5%
22,O=C(NCc1ccncc1)c1ccc(C2CCCN2Cc2ccco2)s1 (stereo unspecified),5.4%

row,Structure (SMILES),activity
1,CCN1CCCC1CN(CC1CCN(CCOC)CC1)C(=O)Cn1cncn1 (stereo unspecified),11.5%
2,CCC(O)CNC(=O)c1coc(CN2CCN(C/C=C/c3ccccc3)CC2)n1 (stereo unspecified),1.5%
3,COc1ccc(CN2CCNC(=O)C2CC(=O)NCCSc2nccn2C)c(OC)c1 (stereo unspecified),7.5%
4,Cc1nc(CNC(=O)C2(N3CCCCC3)Cc3ccccc3C2)cs1,6%
5,CNC(=O)CSCc1ccc(F)cc1,inactive: -11.4%
6,COc1ccc(Cl)cc1NC(=O)CCC1CCCN(C(=O)c2cnc[nH]2)C1 (stereo unspecified),1.3%
7,CC(C)NC(=O)C1CCN(C2CCN(C3CCC3)CC2)CC1,3.6%
8,O=C(c1cc(-c2cnn(CCO)c2)nc2cc(F)ccc12)N1CCSCC1,2.9%
9,COCCNC(=O)CCC1CCN(S(=O)(=O)c2cc(C)sc2C)CC1,14.3%
10,CCN1CCN(CC(O)COc2ccc(CNCCCSC)cc2OC)CC1 (stereo unspecified),7.8%
11,CCN(CCO)Cc1cnc(S(=O)(=O)CCOC)n1Cc1ccccc1,inactive: -2.8%
12,CCN1CCCC1CN(CC1CCN(CCOC)CC1)C(=O)CCc1ccc(=O)[nH]n1 (stereo unspecified),6.9%
13,COCc1cc(CNC2CCN(c3ccc(-n4cccn4)cc3)CC2)n[nH]1,inactive: -2.6%
14,CCN(CCO)C1CC(=O)N(c2ccccc2C)C1=O (stereo unspecified),2.5%
15,COc1cccc(CN(C)Cc2nc(Cc3cccc(C(F)(F)F)c3)no2)c1,3.2%
16,O=C(NCC1CCCN(C(=O)CCCN2CCCC2=O)C1)c1ccccc1Cl (stereo unspecified),inactive: -1.5%
17,C#CCN(Cc1ccco1)C(=O)CCc1nnc(Cc2ccc3c(c2)OCO3)o1,6.1%
18,CCNS(=O)(=O)c1cc(C)c(C)cc1Br,inactive: -4.8%
19,Cc1cc(Oc2ccccc2)nc(Oc2ccc(=O)n(-c3ccccc3)n2)n1,inactive: -9.1%
20,COc1ccc(CCN2CCCC(CN(C)C(=O)c3nonc3C)C2)cc1 (stereo unspecified),7.5%
21,Cc1nc(CCNC(=O)C2CCC(=O)N(Cc3ccccn3)C2)nc2c1CCC2 (stereo unspecified),inactive: -2.5%
22,COCCCNc1nc2nonc2nc1N(C)CCN1CCOCC1,inactive: -1.4%

row,Structure (SMILES),activity
1,CN(CC(O)COc1ccccc1CNCCCO)C1CCCCC1 (stereo unspecified),3.3%
2,CCCc1cc(CN(C)Cc2cnc(S(=O)(=O)CC3CC3)n2CCOC)[nH]n1,4.6%
3,O=c1c(CN2CCCC(N3CCc4ccccc4C3)C2)coc2ccccc12 (stereo unspecified),2.5%
4,CCC(=O)N1CCN(c2ccc(NC(=O)c3cccs3)cc2Cl)CC1,inactive: -11.7%
5,COc1ccc(NC2CCCN(C(=O)CSc3ccccc3)C2)cc1 (stereo unspecified),inactive: -0.9%
6,CCOC1(C(F)(F)F)NC(=O)N(c2ccc(OC)cc2)C1=O (stereo unspecified),inactive: -2.2%
7,Cc1ccc(NC(=O)CN2CCc3ccccc3C2)cc1,inactive: -21.7%
8,COc1ccc(CCN(C)C2CCCN(CC(C)C)C2)cc1OC (stereo unspecified),0.5%
9,Fc1cccc(C2(CN3CCC(Oc4ncccn4)CC3)CCOC2)c1 (stereo unspecified),inactive: -1.9%
10,CCC1=[C+]c2c(nc(C)nc2N2CCOCC2)S1,inactive: -20.3%
11,Cc1[nH]ncc1C(=O)N1CCOC(CC2CCCCC2)C1 (stereo unspecified),3.4%
12,C=CCC(O)(CC=C)CNC(=O)C1CCC(=O)N(Cc2ccccc2OC)C1 (stereo unspecified),0.6%
13,COCCNC(=O)CCC1CCN(Cc2cn[nH]c2-c2cc(C)ccc2C)CC1,inactive: -2.8%
14,CCCNc1ccc(-c2nc(-c3ncccn3)no2)cc1,active: 53%
15,NC(=O)C1(C(=O)N(Cc2cccnc2)CC2CCCN(C3CCCCC3)C2)CC1 (stereo unspecified),3%
16,CCCC(=O)Nc1ccc(N2CCN(C(=O)c3ccco3)CC2)c(Cl)c1,inactive: -4%
17,C=CCNCc1ccc(OCC(O)CN(C)C2CCCCC2)c(OC)c1 (stereo unspecified),2.7%
18,OC(COc1ccccc1CNCCCCCN1CCOCC1)CN1CCSCC1 (stereo unspecified),inactive: -1.3%
19,CN(Cc1ccccc1)CC(O)COc1ccc(CNC2CCC(O)CC2)cc1 (stereo unspecified),0.7%
20,O=C1CCCN1CCCNCc1cccc(OCC(O)CN2CCCCCC2)c1 (stereo unspecified),5.6%
21,CC(=O)Nc1cc(C(=O)NC2CCCCCC2)ccc1C,inactive: -4.1%
22,O=C(CCC1CCN(C(=O)CCc2cccnc2)CC1)NCC1CCCO1 (stereo unspecified),11%

row,Structure (SMILES),activity
1,COc1ccc(C(=O)N2CCc3onc(-c4ccc(F)c(F)c4)c3C2)o1,inactive: -1.2%
2,Cc1ccccc1NC(=O)NCc1ccncc1,inactive: -14.4%
3,COc1ccc(-c2cc3ccc(OC(C)=O)cc3oc2=O)cc1OC,active: 49.9%
4,COc1ccccc1C(C)N(C)C(=O)c1cn(Cc2ccc(Cl)cc2)nn1 (stereo unspecified),8.2%
5,O=C(CSc1ccccn1)N1CCC2(CCCN(CC3CC3)C2=O)C1 (stereo unspecified),2.8%
6,O=C(c1ccccc1OC1CCN(Cc2ccccc2O)CC1)N1CCCC1,inactive: -5.8%
7,C=CCN(CC=C)C(=O)C1CCC(=O)N(CCCN2CCOCC2)C1 (stereo unspecified),0.3%
8,Cc1cc(=O)c2cc(C(=O)NCc3ccco3)ccc2[nH]1,inactive: -0.6%
9,Cc1ccccc1C(=O)Nc1ccnn1C1CCN(C(=O)c2ccco2)CC1,6.3%
10,Cc1ccc(CCNC(=O)Nc2nnc(-c3ccco3)s2)s1,4.6%
11,COCCc1cc(=O)[nH]c(-c2ccc(CN(C)Cc3ccccn3)cc2)n1,6.6%
12,c1ccc(Cc2nn3c(-c4ccco4)nnc3s2)cc1,inactive: -5.1%
13,COc1ccc(S(=O)(=O)NCC2CCCN(C(=O)CN3CCCC3)C2)cc1 (stereo unspecified),0.5%
14,COc1cc(C)c(Cl)cc1S(=O)(=O)n1cccn1,inactive: -12.9%
15,C=CCNC(=O)N1CCOC(Cc2cccc(C(F)(F)F)c2)C1 (stereo unspecified),1.5%
16,O=C(Nc1cccc(-n2cccn2)c1)C1CCCN1Cc1cnc[nH]1 (stereo unspecified),inactive: -25.6%
17,C/C(=C\c1ccco1)CN1CCC2(CCCN(CC3CC3)C2)C1 (stereo unspecified),inactive: -1.1%
18,NC(=O)CCNCc1ccccc1OCC(O)CN1CCCCC1 (stereo unspecified),4.1%
19,CCSc1ncc(CN2CC[C@@H](N3CCCCCC3)[C@H](O)C2)cn1,0.9%
20,O=C(c1cn(C2CCCCCC2)nn1)N1CCN(Cc2ccc3c(c2)OCO3)CC1,inactive: -1%
21,O=C1CC(c2ccc(S(=O)(=O)N3CCCC3)cc2)CN1 (stereo unspecified),inactive: -1.5%
22,CC(NC(=O)Cn1nc(-c2ccccc2)ccc1=O)c1ccccc1 (stereo unspecified),8.8%

# Molecules from the list above that contain a thiophene ring, fused or not, in the order listed:
row,Structure (SMILES),activity
22,O=C(NCc1ccncc1)c1ccc(C2CCCN2Cc2ccco2)s1 (stereo unspecified),5.4%
9,COCCNC(=O)CCC1CCN(S(=O)(=O)c2cc(C)sc2C)CC1,14.3%
4,CCC(=O)N1CCN(c2ccc(NC(=O)c3cccs3)cc2Cl)CC1,inactive: -11.7%
10,Cc1ccc(CCNC(=O)Nc2nnc(-c3ccco3)s2)s1,4.6%

# (list continues)

row,Structure (SMILES),activity
1,O=C(c1ccc(Oc2ccccc2)cc1)C1CCCN(C(=O)CCN2CCCC2=O)C1 (stereo unspecified),3.7%
2,O=C(CCC1CCCN(C(=O)Cn2cnnn2)C1)N1CCN(Cc2ccccc2)CC1 (stereo unspecified),9.9%
3,CSc1ccccc1NC(=O)c1ccc(NS(C)(=O)=O)cc1,3.7%
4,COCC1CCCN(C(=O)c2cn(C(c3ccccc3)c3ccccc3)nn2)C1 (stereo unspecified),4.7%
5,O=C(CCC1CCN(CC2CCOC2)CC1)N1CCC(Cc2ccccc2)CC1 (stereo unspecified),1.7%
6,Cc1c(CN2CCCC(N3CCN(c4ccccc4)CC3)C2)c(=O)n(-c2ccccc2)n1C (stereo unspecified),inactive: -4.8%
7,COc1ccc(-n2cc(CN[C@H]3CCCCNC3=O)c(-c3cccc(F)c3)n2)cc1,inactive: -3.9%
8,Cc1cccc(-n2ccnc2CN2CCC(CCC(=O)N3CCOCC3)CC2)c1,8.9%
9,Cc1ccccc1C(=O)Nc1ccccc1C(=O)N(C)C,inactive: -20%
10,CC1(C)CC(=O)C=C(C(=O)N2CCCC(Nc3ccc4c(c3)OCCO4)C2)O1 (stereo unspecified),14.7%
11,CCOc1ccccc1CN1CCNC(=O)C1CC(=O)NCC1CCN(CCOC)CC1 (stereo unspecified),4%
12,COc1ccc(-c2nc(SCC(=O)N3CCCC3)n[nH]2)cc1,2.8%
13,CN(Cc1ccon1)CC1(O)CCCN(Cc2ccccc2F)C1=O (stereo unspecified),6.1%
14,CSCCC(=O)N1CCC(CCC(=O)Nc2cccc(C)c2)CC1,2.6%
15,CCCn1cc(CN2CCOC(CCc3ccccc3)C2)c(C)n1 (stereo unspecified),inactive: -1.5%
16,O=C(CCn1nnnc1CN1CCOCC1)NCCCn1ncc2ccccc21,2.3%
17,CN(Cc1cnn(C)c1)C(=O)c1cc(COc2ccc(-n3cncn3)cc2)on1,0.2%
18,COc1cc(CNC2(c3ccccc3)CC2)ccc1OCC(O)CN1CCOCC1 (stereo unspecified),5.8%
